In PMC6804443 (Acta Pharmaceutica Sinica. B, 2019):

Target: T1, OATP1B3 (Homo sapiens, UniProt Q9NPD5)
T1 sequence (Q9NPD5 1-702): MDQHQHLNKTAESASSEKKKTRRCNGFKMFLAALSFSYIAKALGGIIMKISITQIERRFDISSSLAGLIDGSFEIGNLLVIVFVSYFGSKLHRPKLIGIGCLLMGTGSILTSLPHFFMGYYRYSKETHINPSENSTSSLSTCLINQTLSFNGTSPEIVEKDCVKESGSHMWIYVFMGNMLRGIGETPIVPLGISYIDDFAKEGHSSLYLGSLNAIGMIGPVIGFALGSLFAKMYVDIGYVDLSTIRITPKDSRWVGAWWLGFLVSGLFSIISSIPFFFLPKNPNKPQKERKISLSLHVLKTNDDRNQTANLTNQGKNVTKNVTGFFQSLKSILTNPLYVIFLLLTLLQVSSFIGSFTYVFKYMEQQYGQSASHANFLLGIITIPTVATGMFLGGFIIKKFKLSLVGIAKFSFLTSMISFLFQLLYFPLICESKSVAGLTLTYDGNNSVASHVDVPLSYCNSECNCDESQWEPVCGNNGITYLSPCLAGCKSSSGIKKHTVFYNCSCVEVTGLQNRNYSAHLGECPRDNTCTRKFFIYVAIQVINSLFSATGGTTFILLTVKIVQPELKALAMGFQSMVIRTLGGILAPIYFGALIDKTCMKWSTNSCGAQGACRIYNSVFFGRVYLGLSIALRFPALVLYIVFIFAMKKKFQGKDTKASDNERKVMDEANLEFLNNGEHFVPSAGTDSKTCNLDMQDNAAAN
Test: in vitro

inhibition at 100 μmol/L: 64 to 88%
SMILES: CCC[C@@H]1C[C@@H](C(=O)N[C@@H]([C@H]2O[C@H](SC)[C@H](O)[C@@H](O)[C@H]2O)[C@H](C)Cl)N(C)C1 [A35, clindamycin]
